Structures can show the parent of a compound that is named as a salt. The list shows a part of the results. Hit calls seldom repeat between salt and free forms of one compound.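 Kinases were expressed as nanoluciferase fusions in K562 cells and luminescence was read every 4 h between 2 and 18 h as percent of control, DMSO set to 100% and a positive control to 0%. A time point counts as decreased when the signal drops significantly (2 sigma). The hit call is the authors' own, does not follow from the count of time points alone, and its rule is not shown.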
Biological target: PLK1 (UniProt P53350)
Experiment: kinase-Nluc reporter destabilization hit call (1 = scored as downregulated) (binary); higher = compound decreases kinase abundance
Settings: K562; 2-18 h

Amino acid sequences for entries named in this document (tags omitted). A change or cut given only in a name is not applied to a line headed by its entry.
UniProt P53350, whole entry: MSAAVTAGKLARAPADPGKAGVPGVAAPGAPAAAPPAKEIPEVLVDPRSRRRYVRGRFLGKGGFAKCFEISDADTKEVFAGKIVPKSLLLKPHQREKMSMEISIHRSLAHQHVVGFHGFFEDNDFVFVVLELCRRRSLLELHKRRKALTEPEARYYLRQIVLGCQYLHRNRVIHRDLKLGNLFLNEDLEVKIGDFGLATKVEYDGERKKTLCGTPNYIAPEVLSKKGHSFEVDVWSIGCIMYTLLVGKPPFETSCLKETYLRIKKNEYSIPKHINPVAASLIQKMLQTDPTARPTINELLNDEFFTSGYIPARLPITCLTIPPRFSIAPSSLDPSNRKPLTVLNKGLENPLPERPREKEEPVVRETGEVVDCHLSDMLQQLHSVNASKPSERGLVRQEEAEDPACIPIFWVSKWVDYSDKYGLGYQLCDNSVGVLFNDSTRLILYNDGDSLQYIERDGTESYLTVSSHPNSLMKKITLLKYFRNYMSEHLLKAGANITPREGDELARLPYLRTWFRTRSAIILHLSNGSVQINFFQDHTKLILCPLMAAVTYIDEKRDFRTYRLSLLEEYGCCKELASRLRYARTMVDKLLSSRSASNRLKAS
UniProt Q13131: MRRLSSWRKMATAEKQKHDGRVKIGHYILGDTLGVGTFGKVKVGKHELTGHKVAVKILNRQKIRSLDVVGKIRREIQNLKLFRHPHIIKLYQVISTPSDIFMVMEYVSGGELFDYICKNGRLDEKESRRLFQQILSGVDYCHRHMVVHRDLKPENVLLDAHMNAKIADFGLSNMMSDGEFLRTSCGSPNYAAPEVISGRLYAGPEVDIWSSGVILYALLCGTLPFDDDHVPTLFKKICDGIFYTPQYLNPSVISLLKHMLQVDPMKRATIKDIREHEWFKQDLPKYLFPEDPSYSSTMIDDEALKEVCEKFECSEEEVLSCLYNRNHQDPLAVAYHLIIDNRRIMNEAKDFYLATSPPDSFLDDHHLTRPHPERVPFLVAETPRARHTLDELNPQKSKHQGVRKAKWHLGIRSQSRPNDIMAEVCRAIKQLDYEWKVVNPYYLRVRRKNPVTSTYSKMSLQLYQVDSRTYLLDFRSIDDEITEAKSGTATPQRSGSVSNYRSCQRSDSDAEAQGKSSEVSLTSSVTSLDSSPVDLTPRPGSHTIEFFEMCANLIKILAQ

SMILES | kinase-Nluc reporter destabilization hit call
CC(=O)NC1CC(n2cnc(NC(=O)Cc3ccc4ccccc4c3)c2)C1 (stereo not given) (10 µM) | inactive: 0
O=C(CSC1=NCCN1)NC1CCCCCC1 [ICCB-19 (hydrochloride)] (2.5 µM) | inactive: 0
N#Cc1c(C2CCNCC2)cc(-c2c(O)cccc2OCC2CC2)nc1N [ACHP (Hydrochloride)] (10 µM) | inactive: 0
CCOC(=O)N1CCN(C(=O)[C@H](Cc2cccc(C(=N)N)c2)NS(=O)(=O)c2c(C(C)C)cc(C(C)C)cc2C(C)C)CC1 (10 µM) | inactive: 0
CN1CCN(c2cnc3c(C4CCN(C(=O)c5ccc(OC(F)(F)F)cc5N)CC4)ncnc3c2)CC1 (10 µM) | inactive: 0
Cc1[nH]c(/C=C2\C(=O)Nc3ccccc32)c(C)c1CCC(=O)O [Orantinib] (10 µM) | inactive: 0
Cn1nccc1Nc1nccc(-c2ccn([C@H](CO)c3ccc(Cl)c(F)c3)c(=O)c2)n1 [Ravoxertinib hydrochloride] (10 µM) | inactive: 0
CCCCCCCCCCCCC/C=C/[C@@H](O)[C@@H](N)CO [D-erythro-Sphingosine] (2.5 µM) | inactive: 0

Individual results from above:
In kinase-Nluc reporter destabilization hit call, N#Cc1c(C2CCNCC2)cc(-c2c(O)cccc2OCC2CC2)nc1N [ACHP (Hydrochloride)] (10 µM) reads inactive: 0
In kinase-Nluc reporter destabilization hit call, CCOC(=O)N1CCN(C(=O)[C@H](Cc2cccc(C(=N)N)c2)NS(=O)(=O)c2c(C(C)C)cc(C(C)C)cc2C(C)C)CC1 (10 µM) reads inactive: 0

Biological target: PRKAA1 (UniProt Q13131)
Experiment: as above
Settings: K562; 2-18 h

SMILES | kinase-Nluc reporter destabilization hit call
CCS(=O)(=O)c1ncc(Cl)c(C(=O)N(Cc2ccc(Cl)cc2)Cc2ccco2)n1 (2.5 µM) | inactive: 0
Nc1cc(C(F)(F)F)c(-c2cc(N3CCOCC3)nc(N3CCOCC3)n2)cn1 [Buparlisib (Hydrochloride)] (2.5 µM) | inactive: 0
COc1cc(Nc2ncc(F)c(Nc3ccc4c(n3)N(COP(=O)(O)O)C(=O)C(C)(C)O4)n2)cc(OC)c1OC [Fostamatinib Disodium] (10 µM) | inactive: 0
CC(C)(O)CNc1ncc(-c2ccnc(Nc3ccnc(Cl)c3)n2)c(CC2CC2)n1 (2.5 µM) | inactive: 0
O=Nc1c(-c2c(O)[nH]c3ccc(I)cc23)[nH]c2ccccc12 [5-Iodo-indirubin-3'-monoxime] (10 µM) | inactive: 0
Cc1cc(Nc2ncnc3ccc(NC4=NC(C)(C)CO4)cc23)ccc1Oc1ccn2ncnc2c1 [Tucatinib] (2.5 µM) | inactive: 0
CCS(=O)(=O)Nc1ccc2[nH]c(O)c(C(=Nc3ccc(CN4CCCCC4)cc3)c3ccccc3)c2c1 [Hesperadin] (2.5 µM) | inactive: 0
COc1cc2c(cc1OC)CN(S(=O)(=O)c1ccc(OC)c(N3CCN(C(=O)c4ccc(F)cc4C(F)(F)F)CC3)c1)CC2 (10 µM) | inactive: 0
O=C([O-])c1cc2ccccc2c(Cc2c(O)c(C(=O)[O-])cc3ccccc23)c1O.[Na+].[Na+] [Pamoic acid (disodium)] (10 µM) | inactive: 0
Cn1cc(-c2ccc3nnc(Sc4ccc5ncccc5c4)n3n2)cn1 (10 µM) | inactive: 0
Cc1cc(O)c2c(c1)C(=O)c1cc(O)cc(O)c1C2=O [Emodin] (10 µM) | inactive: 0
COc1cc2c(N3CCN(C(=O)Nc4ccc(OC(C)C)cc4)CC3)ncnc2cc1OCCCN1CCCCC1 [Tandutinib (hydrochloride)] (10 µM) | inactive: 0
CCC(C)N1c2ccccc2C(=O)N(C)c2cnc(Nc3ccc(C(=O)N4CCC(N5CCN(C)CC5)CC4)cc3OC)nc21 (stereo not given) (2.5 µM) | inactive: 0
COc1cc(Nc2ncc(F)c(Nc3ccc4c(n3)NC(=O)C(C)(C)O4)n2)cc(OC)c1OC (10 µM) | inactive: 0
NS(=O)(=O)c1ccc(-n2nc(C(F)(F)F)cc2-c2ccc(Cl)cc2)cc1 (10 µM) | inactive: 0
Cc1c(NC(=O)c2cccn(-c3ccc(F)cc3)c2=O)ccc(Oc2ccnc(NC(=O)C3CC3)c2)c1C (2 µM) | inactive: 0
c1ccc(-c2[nH]ncc2-c2ccnc3ccccc23)nc1 (10 µM) | inactive: 0
CN(C)CCCOc1ccc(-c2ccc3ncc4c(c3c2)n(C2CCOCC2)c(=O)n4C)cn1 (2 µM) | inactive: 0
COc1cc(Nc2ncc(F)c(Nc3ccc4c(n3)NC(=O)C(C)(C)O4)n2)cc(OC)c1OC [R406 (free base)] (10 µM) | inactive: 0
OCCn1cc(-c2ccc3c(c2)CC/C3=N\O)c(-c2ccncc2)n1 (10 µM) | inactive: 0
C[C@@H]1CCN(C(=O)CC#N)C[C@@H]1N(C)c1ncnc2[nH]ccc12 [Tofacitinib] (10 µM) | inactive: 0
C[C@@H]1CCN(C(=O)CC#N)C[C@@H]1N(C)c1ncnc2[nH]ccc12 [Tofacitinib (citrate)] (10 µM) | inactive: 0
